According to patent US20170105979A1, “USE OF A TORASEMIDE-BASED VETERINARY COMPOSITION FOR LOW-DOSE ADMINISTERING” (VIRBAC, priority 2014, published 2017):

How the values were obtained:
[1] = prolonged treatments of 14 days; torasemide 0.4 mg/kg/day; cited from earlier work
[2] = plasma urea concentration (innocuousness); type: in vivo, female Beagle dogs; settings: furosemide (5 mg/kg/day), D18 and D28; FIG. 7
[3] = plasma aldosterone concentration (innocuousness); type: in vivo, female Beagle dogs; settings: furosemide (5 mg/kg/day), D18 and D28; FIG. 8

- plasma urea concentration [2]: increase
- plasma aldosterone concentration [3]: increase
Structure (SMILES): NS(=O)(=O)c1cc(C(=O)O)c(NCc2ccco2)cc1Cl [furosemide]
- plasma creatinine concentrations [1]: increase in plasma creatinine concentrations
